Assay results: patent US20240210419A1 (UNIVERSITY OF VIRGINIA PATENT FOUNDATION, published 2024)
These are yes or no findings as the source states them, for the method shown. Some binding calls cover weakened binding; strength is not graded here.

Chains of the proteins cited; added tags and fusions are not shown. Lines headed by an entry give the natural chain unless they say otherwise; changes in a name come on top. A line that says so, or that is headed by a name, gives the form on record, which may keep a tag or linker.
FN-4G-10 recombinant fibronectin fragment (diseased form mimic) (P02751, form named): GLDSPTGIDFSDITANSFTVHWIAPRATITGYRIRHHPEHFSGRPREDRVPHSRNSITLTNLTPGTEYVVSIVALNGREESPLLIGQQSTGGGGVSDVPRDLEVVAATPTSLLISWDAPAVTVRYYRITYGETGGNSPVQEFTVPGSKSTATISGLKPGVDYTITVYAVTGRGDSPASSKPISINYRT

Tests used:
[1] = target: FN-4G-10 recombinant fibronectin fragment (diseased form mimic) (UniProt P02751); test: ELISA, fibronectin fragment tethered on maleimide-activated plate, colorimetric detection (absorbance)
[2] = target: FN-4G-10 recombinant fibronectin fragment (diseased form mimic) (UniProt P02751); test: ELISA, fibronectin fragment tethered to maleimide activated plate
[3] = target: FN-4G-10 recombinant fibronectin fragment (diseased form mimic) (UniProt P02751); test: summary sentence in the discussion of the examples; paragraph 206 says the H5-IgG1 supernatants were used in the ELISA binding assay of EXAMPLE 1
[4] = target: FN-4G-10 recombinant fibronectin fragment (diseased form mimic) (UniProt P02751); test: ELISA (summary of EXAMPLE 1)

- binding [1]: binds
- binding [2]: binds
- binding [3]: binds
- binding [4]: binds
B1: modified H5-IgG1 antibody (antibody, V domains shown)
VH: EVQLLESGGGLVQPGGSLRLSCAASGFTFSSYAMSWVRQAPGKGLEWVSDIYDGGGTNYADSVKGRFTTSRDNSKNTLYLQMNSLRAEDTAVYYCAKTADNFDYWGQGTLVTVSS
VL: DIQMTQSPSSLSASVGDRVTITCRASQSISSYLNWYQQKPGKAPKLLIYAASTLQSGVPSRFSGSGSGTDFTLTISSLQPEDFATYYCQQANSAPTTFGQGTKVEIKR
notes: Full length IgG1 format; Made in a plug-and-(dis)play (PnP) hybridoma cell line; also called modified IgG1 format of H5
